Test results as given in paper PMC11066007, “CORVET-specific subunit levels determine the balance between HOPS/CORVET endosomal tethering complexes” (Scientific Reports, 2024).
Results are given in words; binding and its absence hold for the method and conditions named. In cells and extracts the contact can be indirect. Some entries that bind do so weakly or less than the wild type. Tags and fused reporters may be left off the sequences shown.

Legend:
[1] = target: T1, VPS18 (human (endogenous in HEK293)) (UniProt Q9P253); assay: co-IP; anti-FLAG beads on total lysates of HEK293 cells stably transfected with a FLAG-tagged specific subunit, with or without transient overexpression of the counterpart subunit (control: pCMV); endogenous VPS11 and VPS18 detected by western blot, densitometry with ImageJ; lysis buffer 50 mM TRIS-HCl pH 7.5, 150 mM NaCl, 1% Triton X-100, 5 mM EDTA; 1.5 h at 4 °C
T1 sequence: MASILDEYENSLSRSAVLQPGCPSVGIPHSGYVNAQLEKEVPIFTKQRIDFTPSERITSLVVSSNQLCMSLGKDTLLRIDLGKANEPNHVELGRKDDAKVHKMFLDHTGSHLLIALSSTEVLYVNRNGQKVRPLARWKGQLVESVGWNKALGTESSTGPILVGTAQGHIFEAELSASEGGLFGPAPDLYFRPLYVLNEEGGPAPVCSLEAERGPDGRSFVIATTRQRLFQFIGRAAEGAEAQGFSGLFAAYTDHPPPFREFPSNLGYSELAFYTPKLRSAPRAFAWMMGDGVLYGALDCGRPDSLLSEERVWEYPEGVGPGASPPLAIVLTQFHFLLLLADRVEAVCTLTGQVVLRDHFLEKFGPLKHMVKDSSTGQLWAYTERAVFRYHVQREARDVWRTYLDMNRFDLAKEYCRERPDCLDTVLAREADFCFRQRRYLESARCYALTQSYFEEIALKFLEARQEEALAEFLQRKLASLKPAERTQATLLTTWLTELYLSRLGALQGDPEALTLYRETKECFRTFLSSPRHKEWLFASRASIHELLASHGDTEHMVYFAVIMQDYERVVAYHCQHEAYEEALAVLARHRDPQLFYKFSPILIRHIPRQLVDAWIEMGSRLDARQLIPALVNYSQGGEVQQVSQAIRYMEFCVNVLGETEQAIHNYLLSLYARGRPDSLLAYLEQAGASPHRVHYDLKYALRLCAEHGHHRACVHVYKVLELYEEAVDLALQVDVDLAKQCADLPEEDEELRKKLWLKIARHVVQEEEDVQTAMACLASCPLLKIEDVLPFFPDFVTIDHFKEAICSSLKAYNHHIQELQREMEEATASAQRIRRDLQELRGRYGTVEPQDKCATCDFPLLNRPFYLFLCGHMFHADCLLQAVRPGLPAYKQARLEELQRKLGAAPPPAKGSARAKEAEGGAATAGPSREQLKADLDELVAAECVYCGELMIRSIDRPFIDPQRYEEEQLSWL

[2] = target: T2, VPS39-FLAG (human, UniProt Q96JC1 1-886); assay: co-IP; anti-FLAG beads on lysates of HEK293 cells overexpressing a FLAG-tagged subunit together with untagged VPS8 or VPS41-HA; eluates analysed by western blot; lysis buffer 50 mM TRIS-HCl pH 7.5, 150 mM NaCl, 1% Triton X-100, 5 mM EDTA; 1.5 h at 4 °C
T2 construct: VPS39, human, HOPS-specific subunit; DNA region encoding the full-length protein fused with a FLAG tag; also called HOPS-specific VPS39; not shown: FLAG, N-terminal, kept
T2 sequence (looked up): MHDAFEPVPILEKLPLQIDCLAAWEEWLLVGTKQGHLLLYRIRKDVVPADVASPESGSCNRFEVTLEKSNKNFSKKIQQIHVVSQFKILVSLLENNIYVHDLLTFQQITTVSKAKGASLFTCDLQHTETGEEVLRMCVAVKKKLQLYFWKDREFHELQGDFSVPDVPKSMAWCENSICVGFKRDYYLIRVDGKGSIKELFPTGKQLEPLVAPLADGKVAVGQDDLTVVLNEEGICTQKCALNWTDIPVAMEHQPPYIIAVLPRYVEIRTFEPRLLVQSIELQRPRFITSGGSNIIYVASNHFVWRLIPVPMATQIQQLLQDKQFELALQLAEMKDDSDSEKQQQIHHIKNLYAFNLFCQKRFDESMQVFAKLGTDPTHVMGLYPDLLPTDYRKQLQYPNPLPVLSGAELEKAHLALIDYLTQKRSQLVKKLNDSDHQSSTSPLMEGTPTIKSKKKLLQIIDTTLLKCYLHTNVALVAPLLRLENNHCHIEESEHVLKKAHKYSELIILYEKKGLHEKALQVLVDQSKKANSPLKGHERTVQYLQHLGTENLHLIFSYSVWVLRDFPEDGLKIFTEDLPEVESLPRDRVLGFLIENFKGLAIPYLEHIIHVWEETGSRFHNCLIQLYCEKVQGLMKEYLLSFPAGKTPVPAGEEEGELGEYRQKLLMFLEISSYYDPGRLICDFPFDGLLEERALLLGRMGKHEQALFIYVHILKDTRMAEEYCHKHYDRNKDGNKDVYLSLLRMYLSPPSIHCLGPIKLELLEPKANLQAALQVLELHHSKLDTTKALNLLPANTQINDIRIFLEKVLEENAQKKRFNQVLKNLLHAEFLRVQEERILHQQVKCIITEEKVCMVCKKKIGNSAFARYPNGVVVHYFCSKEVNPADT

B1: VPS8 (untagged) (protein, UniProt Q8N3P4 1-1428)
chain: MENEPDHENVEQSLCAKTSEEELNKSFNLEASLSKFSYIDMDKELEFKNDLIDDKEFDIPQVDTPPTLESILNETDDEDESFILEDPTLLNIDTIDSHSYDTSSVASSDSGDRTNLKRKKKLPDSFSLHGSVMRHSLLKGISAQIVSAADKVDAGLPTAIAVSSLIAVGTSHGLALIFGKDQNQALRLCLGSTSVGGQYGAISALSINNDCSRLLCGFAKGQITMWDLASGKLLRSITDAHPPGTAILHIKFTDDPTLAICNDSGGSVFELTFKRVMGVRTCESRCLFSGSKGEVCCIEPLHSKPELKDHPITQFSLLAMASLTKILVIGLKPSLKVWMTFPYGRMDPSSVPLLAWHFVAVQNYVNPMLAFCRGDVVHFLLVKRDESGAIHVTKQKHLHLYYDLINFTWINSRTVVLLDSVEKLHVIDRQTQEELETVEISEVQLVYNSSHFKSLATGGNVSQALALVGEKACYQSISSYGGQIFYLGTKSVYVMMLRSWRERVDHLLKQDCLTEALALAWSFHEGKAKAVVGLSGDASKRKAIVADRMVEILFHYADRALKKCPDQGKIQVMEQHFQDMVPVIVDYCLLLQRKDLLFSQMYDKLSENSVAKGVFLECLEPYILSDKLVGITPQVMKDLIVHFQDKKLMENVEALIVHMDITSLDIQQVVLMCWENRLYDAMIYVYNRGMNEFISPMEKLFRVIAPPLNAGKTLTDEQVVMGNKLLVYISCCLAGRAYPLGDIPEDLVPLVKNQVFEFLIRLHSAEASPEEEIYPYIRTLLHFDTREFLNVLALTFEDFKNDKQAVEYQQRIVDILLKVMVENSDFTPSQVGCLFTFLARQLAKPDNTLFVNRTLFDQVLEFLCSPDDDSRHSERQQVLLELLQAGGIVQFEESRLIRMAEKAEFYQICEFMYEREHQYDKIIDCYLRDPLREEEVFNYIHNILSIPGHSAEEKQSVWQKAMDHIEELVSLKPCKAAELVATHFSGHIETVIKKLQNQVLLFKFLRSLLDPREGIHVNQELLQISPCITEQFIELLCQFNPTQVIETLQVLECYRLEETIQITQKYQLHEVTAYLLEKKGDIHGAFLIMLERLQSKLQEVTHQGENTKEDPSLKDVEDTMVETIALCQRNSHNLNQQQREALWFPLLEAMMAPQKLSSSAIPHLHSEALKSLTMQVLNSMAAFIALPSILQRILQDPVYGKGKLGEIQGLILGMLDTFNYEQTLLETTTSLLNQDLHWSLCNLRASVTRGLNPKQDYCSICLQQYKRRQEMADEIIVFSCGHLYHSFCLQNKECTVEFEGQTRWTCYKCSSSNKVGKLSENSSEIKKGRITPSQVKMSPSYHQSKGDPTAKKGTSEPVLDPQQIQAFDQLCRLYRGSSRLALLTELSQNRSSESYRPFSGSQSAPAFNSIFQNENFQLQLIPPPVTED
[1]
  binding: binds
[2]
  binding: binds
